Here are results for two molecules from US20250059282A1.

Positions count from the first letter of the chain named. These are yes or no findings as the source states them, for the method shown. Some results given as binding are weak or reduced against the parent protein; the word gives no strength.

The target of test [1] is Cyno PD-L2-Fc (cynomolgus). The experiment in a line: ForteBio (Tables 5 and 6).
The target of test [2] is Cyno PD-L1-Fc (cynomolgus) (UniProt G7PSE7). The experiment in a line: ForteBio (Tables 5 and 6).

B1: BiPDL4-24 (antibody, V domains shown)
VH: QVQLVESGGGVVQPGRSLRLSCAASGFTFDEYGMHWVRQAPGKGLEWVAVIGYDGLNKYYADSVKGRFTISRDNSKNTLYLQMNSLRAEDTAVYYCARAGIEYSYAYTDYWGQGTLVTVSS
VL: EIVLTQSPGTLSLSPGERATLSCRASNSVVSSYLAWYQQKPGQAPRLLIYGAASRANGIPDRFSGSGSGTDFTLTISRLEPEDFAVYYCVQFGWWPPRTFGGGTKVEIK
For B1, the binding result in test [1] and in test [2] was “binds” throughout.

B2: BiPDL4-44 (antibody, V domains shown)
VH: B1 VH with V12I, D30S, E31A, G33L, V50A, L56M
VL: B1 VL with N27H, A53S, A56E, N57D
On to B2, for which the binding result in test [1] and in test [2] was “binds” in each case.
